Measurements reported in publication PMC5880807.
These are yes or no findings as the source states them, for the method shown. Binding seen in cells or lysates may run through a third protein. Some binding calls cover weakened binding; strength is not graded here.

Chains of the proteins cited; added tags and fusions are not shown. Lines headed by an entry give the natural chain unless they say otherwise; changes in a name come on top. A line that says so, or that is headed by a name, gives the form on record, which may keep a tag or linker. Residues count along the entry.
UniProt P56817, residues 22-501: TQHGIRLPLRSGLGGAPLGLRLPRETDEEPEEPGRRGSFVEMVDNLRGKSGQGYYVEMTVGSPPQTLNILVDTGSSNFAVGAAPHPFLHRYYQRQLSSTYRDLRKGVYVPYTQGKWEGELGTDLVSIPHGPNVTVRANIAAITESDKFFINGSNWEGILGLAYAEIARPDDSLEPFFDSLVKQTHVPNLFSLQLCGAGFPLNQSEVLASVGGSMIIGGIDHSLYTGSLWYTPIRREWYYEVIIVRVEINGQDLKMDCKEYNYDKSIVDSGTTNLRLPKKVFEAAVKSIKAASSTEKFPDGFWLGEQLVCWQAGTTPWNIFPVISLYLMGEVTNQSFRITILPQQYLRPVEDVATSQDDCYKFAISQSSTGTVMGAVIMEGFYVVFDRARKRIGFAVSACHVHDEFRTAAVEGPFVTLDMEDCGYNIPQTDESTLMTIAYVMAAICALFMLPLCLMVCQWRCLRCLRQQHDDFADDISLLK
insulin receptor precursor (proIR), isoform A (P06213-2, form named): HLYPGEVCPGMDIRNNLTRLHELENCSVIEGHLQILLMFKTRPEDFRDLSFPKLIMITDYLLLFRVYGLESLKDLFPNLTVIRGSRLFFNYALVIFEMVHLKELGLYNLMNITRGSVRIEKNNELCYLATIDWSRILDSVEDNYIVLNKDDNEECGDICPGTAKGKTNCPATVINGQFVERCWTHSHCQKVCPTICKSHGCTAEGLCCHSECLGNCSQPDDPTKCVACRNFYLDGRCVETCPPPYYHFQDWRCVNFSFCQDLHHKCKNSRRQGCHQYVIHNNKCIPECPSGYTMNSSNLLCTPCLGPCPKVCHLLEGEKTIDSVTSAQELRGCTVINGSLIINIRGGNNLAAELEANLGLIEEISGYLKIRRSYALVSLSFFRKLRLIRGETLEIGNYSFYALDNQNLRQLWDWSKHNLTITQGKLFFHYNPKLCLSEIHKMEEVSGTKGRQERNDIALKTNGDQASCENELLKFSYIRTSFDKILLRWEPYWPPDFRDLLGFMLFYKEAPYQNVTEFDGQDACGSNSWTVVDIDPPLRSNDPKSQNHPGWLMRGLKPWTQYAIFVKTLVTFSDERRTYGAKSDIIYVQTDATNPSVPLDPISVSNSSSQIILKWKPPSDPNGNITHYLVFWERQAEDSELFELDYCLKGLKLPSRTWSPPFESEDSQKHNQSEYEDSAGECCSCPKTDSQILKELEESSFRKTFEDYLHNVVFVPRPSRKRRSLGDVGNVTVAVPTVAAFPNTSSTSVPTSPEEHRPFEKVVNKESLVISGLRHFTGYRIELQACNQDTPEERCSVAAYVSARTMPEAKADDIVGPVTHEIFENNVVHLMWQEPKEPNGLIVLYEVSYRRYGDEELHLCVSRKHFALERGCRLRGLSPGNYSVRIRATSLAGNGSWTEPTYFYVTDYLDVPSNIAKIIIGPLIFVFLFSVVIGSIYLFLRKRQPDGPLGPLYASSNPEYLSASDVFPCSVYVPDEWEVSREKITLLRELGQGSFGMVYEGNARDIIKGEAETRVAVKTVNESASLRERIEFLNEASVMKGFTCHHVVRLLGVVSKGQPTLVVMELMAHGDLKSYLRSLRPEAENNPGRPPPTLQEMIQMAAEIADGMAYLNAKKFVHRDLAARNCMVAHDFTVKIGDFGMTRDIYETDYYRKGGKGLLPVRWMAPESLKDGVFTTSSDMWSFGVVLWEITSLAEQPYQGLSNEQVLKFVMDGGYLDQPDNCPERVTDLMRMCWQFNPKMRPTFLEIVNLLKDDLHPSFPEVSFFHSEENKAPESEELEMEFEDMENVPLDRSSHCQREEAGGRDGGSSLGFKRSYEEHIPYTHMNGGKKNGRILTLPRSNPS

Biological target: β-site amyloid precursor protein cleaving enzyme 1 (BACE1), HA-tagged, wild type (UniProt P56817)
Experiment: co-IP; HEK 293 cells overexpressing IR (IRA or IRB) and HA-tagged BACE1 or inactive BACE1 (BACE1i), treated or not with the BACE1 inhibitor C3; BACE1 immunoprecipitated with anti-HA antibody; IR and BACE1 detected by immunoblot

## insulin receptor precursor (proIR), isoform A (from UniProt P06213-2 28-1370)
  binding: binds
